From patent publication US20230293588A1
Results are given in words; binding and its absence hold for the method and conditions named. Some entries that bind do so weakly or less than the wild type.

Chains of the proteins cited; added tags and fusions are not shown. Residues count along the entry.
UniProt Q07011, residues 24-186: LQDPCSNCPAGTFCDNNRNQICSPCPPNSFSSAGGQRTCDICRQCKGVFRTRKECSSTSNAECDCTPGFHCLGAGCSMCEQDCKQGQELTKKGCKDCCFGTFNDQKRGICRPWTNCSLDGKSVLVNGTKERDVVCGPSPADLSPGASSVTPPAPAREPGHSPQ
UniProt P41273: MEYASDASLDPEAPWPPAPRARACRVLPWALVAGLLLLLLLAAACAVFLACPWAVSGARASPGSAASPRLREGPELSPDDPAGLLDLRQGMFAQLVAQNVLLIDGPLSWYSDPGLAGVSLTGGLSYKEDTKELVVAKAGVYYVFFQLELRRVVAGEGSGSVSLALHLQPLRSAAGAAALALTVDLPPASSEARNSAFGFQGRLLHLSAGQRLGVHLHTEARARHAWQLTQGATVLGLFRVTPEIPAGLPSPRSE

Biological target: recombinant 41-BB (UniProt Q07011)
Test: flow cytometry, recombinant 41-BB on engineered red blood cells

- binding: binds
Substance: 41-BB-L expressed on RCTs (RCT-41-BB-L) (from UniProt P41273 1-254) (ligand)
